Measured values: patent publication US4711878A, “Novel peptides and processes for preparing the same” (Tanabe Seiyaku Co., Ltd., priority 1985, dated 1987)
Part of at least one peptide drawing is inferred or uncertain, most often the ends.

Tests used:
Assay type in all cases: in vivo
[1] = system: male STD/ddY mice; test: Increasing effect on spontaneous locomotor activity; conditions: test compound i.p., Ambulometer, activity measured for 60 minutes, calculated from dose response curves
[2] = system: male STD/ddY mice; test: Antagonistic effect on reserpine-induced hypothermia; conditions: reserpine 3 mg/kg s.c., test compound i.p., rectal temperature 30-180 min, calculated from dose response curves
[3] = system: male STD/ddY mice; test: Antagonistic effect on pentobarbital anesthesia; conditions: pentobarbital sodium 55 mg/kg i.p., test compound i.v., duration of anesthesia, calculated from dose response curves

With `NC(=O)[C@@H]1CCCN1C(=O)[C@H](Cc1c[nH]cn1)NC(=O)C1CS(=O)(=O)NC(=O)N1` (stereo partly drawn) [N^α -[(RS)-3-oxo-3,4,5,6-tetrahydro-2H-1,2,4-thiadiazine-1,1-dioxide-5-carbonyl]-L-histidyl-L-prolinamide] the “Potency ratio relative to TRH, increasing effect on spontaneous locomotor activity” value [1] was 41.8, the “Potency ratio relative to TRH, antagonistic effect on reserpine-induced hypothermia” value [2] was 27.1 and the “Potency ratio relative to TRH, antagonistic effect on pentobarbital anesthesia” value [3] was 1.6.
